Tested on: K562 cells
Test: K562 cell viability assay (resazurin)
Format: cell-based, human
Details: SI = CC50 normal cell (WSS-1)/CC50 cancer cell (K562)

SMILES	SI WSS-1/K562
Cc1ccc(Nc2ccnc3ccccc23)cc1Nc1nccc(-c2cccnc2)n1 [2g, 4-Methyl-N^3-(4-(pyridin-3-yl)pyrimidin-2-yl)-N^1-(quinolin-4-yl)benzene-1,3-diamine]	0.2
Cc1ccc(Nc2ccc3cccc(Cl)c3n2)cc1Nc1nccc(-c2cccnc2)n1 [2h, N^1-(8-Chloroquinolin-2-yl)-4-methyl-N^3-(4-(pyridin-3-yl)pyrimidin-2-yl)benzene-1,3-diamine]	0.8
